Data as given in PubChem BioAssay AID1259424 (University of Nebraska Medical Center, 2018).

- Purpose: 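Seek colon cancer survival genes behaving like KSR1, using a six-gene signature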 (primary screen)
- System: human HCT116 colon cancer cells
- Reagent: siRNA pool against human genes, 50 nM
- Measured: 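Six signature mRNAs by branched-DNA multiplex assay, scaled to two housekeeping genes and non-targeting median, log2; matched to mean KSR1 knockdown profile by Pearson correlation and euclidean distance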
- Reading the numbers: mean correlation with KSR1 profile: higher = expression change more like KSR1 knockdown
The deposit covers about 14,000 reagents; below is a random part of them. 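Higher correlation or smaller distance means closer resemblance to KSR1 loss; control wells, including KSR1 knockdowns, recur on many plates.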 Not all columns of the deposit are shown. The record does not give: the time to read-out.

mean correlation with KSR1 profile	target gene
0.341	PALM2AKAP2
-0.192	GAGE2E
-0.181	ATP13A4
-0.222	NAA20
0.771	ZNF559
-0.63	GLE1
0.149	SNAPC2
-0.0884	COL21A1
0.584	TNIP1
0.384	GRIN2B
0.306	SLC4A10
-0.161	PTCH1
-0.36	MYH4
0.116	SLC30A10
0.189	KCNQ2
-0.288	ZNF268
0.00232	SSX5
-0.269	DPYSL2
-0.191	TMEM216
0.914	DYRK1A
-0.509	NLRP9
0.347	KRT73
0.406	PRKCA
0.00814	RGS17
0.179	WNT7A
-0.24	CD247
-0.251	CIAPIN1
-0.575	PRPF39
-0.408	WSB2
-0.499	COL9A2
0.0155	MRPL24
0.193	MIS18BP1
0.0451	RND3
0.399	ACBD3
0.0384	FYB1
-0.476	API5
0.304	INSIG2
0.276	GBX2
0.0574	PEX5
-0.118	PSMB9
0.201	GMIP
0.404	TUBB4A
0.201	ARHGEF3
0.797	ADORA3
-0.423	PDIK1L
0.15	RAB20
-0.0542	NCBP3
0.442	HSDL2
-0.0509	SLC12A2
0.528	TCEAL4
